Laboratory results taken from patent US9439876B2, “Method of treating microbial infections” (priority 2014, dated 2016).
At least one structure is not confirmed: it was looked up by name or label, or the drawing left a doubt.

Assays:
Assay type in all cases: cell-based
[1] = tested on: Candida albicans wild type strain SN250; assay: Screen for inhibition of Candida albicans lawn formation (halo) on solid YPD plates; conditions: 5 μl of 10 mM drug on fungal lawn, 25° C. and 37° C.
Experimental: (§1) C. albicans was plated on solid YPD and serum plates, and 5 μl of each 10 mM drug was placed on top of the fungal lawn. The effect of exposure to each of the compounds from the library was assayed for its ability to inhibit C. albicans growth, as well as ability to form a halo within the fungal lawn. […] (FIG. 1A).
High-throughput Screening Assay: The sensitivity of C. albicans against compounds was assessed by a high-throughput chemical screen. 200 μl of C. albicans overnight culture were spread onto petri dishes containing either YPD or fetal bovine serum. 5 μl of each drug was placed directly on the agar surface using a multichannel pipette and slight contact of the tip to the agar made to leave an impression to facilitate later analysis. Compounds that were replicated were done on petri dishes, following the same protocol in at least five independent experiments. For the replication studies, only a single drug was placed per plate. The plates were incubated at either 25° C. or 37° C.

[2] = tested on: Candida albicans wild type strain SN250; assay: Screen for inhibition of Candida albicans lawn formation (halo) on solid serum (FBS agar) plates; conditions: 5 μl of 10 mM drug on fungal lawn, 25° C. and 37° C.
Experimental: as §1
Media and Growth Conditions: C. albicans strains were cultured with 5 ml of YPD (1% yeast extract, 2% peptone, 2% dextrose, pH 6) medium at 30° C. overnight. Bacterial cells were cultured in LB (Luria-Bertani) medium consisting of 5 g Bacto-Tryptone, 2.5 g Bacto-Yeast Extract, 5 g NaCl and 7.5 g of 2% agar if preparing solid plates. The centrifuge tubes were incubated at 37° C. and left shaking overnight at 150 rpm. Fetal bovine serum was incorporated into agar. Fetal bovine serum was preheated in a water bath set at 65° C. […] The agar solution for the serum mixture consisted of 16 g agar, which was then brought up to 300 ml with nanopure water. The agar solution was then autoclaved at 120° C. for 45 minutes. The agar and serum mixtures were then amalgamated while in their isothermal states.
High-throughput Screening Assay: The sensitivity of C. albicans against compounds was assessed by a high-throughput chemical screen. 200 μl of C. albicans overnight culture were spread onto petri dishes containing either YPD or fetal bovine serum. […]

Candida albicans SN250 = assay: Dose-response assay / minimal effective drug concentration forming a halo on YPD-grown lawn; conditions: 5 μl of drug, 10 mM to 0.3 μM two-fold dilutions, YPD plates, 24 hours

| SMILES | inhibition of C. albicans growth (halo formation) on YPD plates [1] | inhibition of C. albicans growth (halo formation) on serum plates [2] | inhibitory concentration range at which the drug formed a halo on a fungal lawn (Candida albicans SN250) |
| --- | --- | --- | --- |
| CCN(CC)C(=S)SSC(=S)N(CC)CC [Disulfiram] | moderate-to-weak anti-Candida activity | strong fungal growth inhibition |  |
| CC(C)n1c(/C=C/C(O)CC(O)CC(=O)O)c(-c2ccc(F)cc2)c2ccccc21 (stereo not shown) [Fluvastatin] | very strong inhibition |  | μM drug concentration |
